Data as given in PMC8520208.
Results are given in words; binding and its absence hold for the method and conditions named. Binding seen in cells or lysates may run through a third protein. Some binding calls cover weakened binding; strength is not graded here. Sequences can lack the tags named with a protein.

Key:
[1] = target: T1, Flag-C2CD4A (C2 calcium dependent domain containing 4A), expressed in 293T cells (human) (UniProt Q8NCU7); test: co-IP; 293 T cells co-transfected with Flag-C2CD4A and HA-p53; immunoprecipitated with anti-Flag or anti-HA antibody; western blot
T1 sequence: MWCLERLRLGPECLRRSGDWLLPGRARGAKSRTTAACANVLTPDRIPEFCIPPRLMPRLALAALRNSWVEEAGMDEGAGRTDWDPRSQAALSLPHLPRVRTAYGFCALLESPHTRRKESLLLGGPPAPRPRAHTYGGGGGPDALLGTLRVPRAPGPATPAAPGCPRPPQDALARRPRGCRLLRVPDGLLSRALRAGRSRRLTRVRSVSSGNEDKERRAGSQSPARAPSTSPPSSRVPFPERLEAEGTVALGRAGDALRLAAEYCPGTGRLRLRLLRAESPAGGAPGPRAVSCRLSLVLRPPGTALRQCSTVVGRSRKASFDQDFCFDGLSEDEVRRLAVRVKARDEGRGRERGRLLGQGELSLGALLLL

[2] = target: T2, Flag-C2CD4A (C2 calcium dependent domain containing 4A), expressed in RKO cells (human) (UniProt Q8NCU7); test: co-IP; lysates of RKO cells transfected with Flag-C2CD4A; immunoprecipitated with anti-IgG, anti-Flag or anti-p53 antibodies, Protein A+G agarose beads; western blot
T2 sequence: T1 sequence

## HA-p53 (from UniProt P04637 1-393)
[1]
  binding: binds

## p53 in RKO cells (from UniProt P04637 1-393)
[2]
  binding: binds
